In PubChem BioAssay AID248 (DTP/NCI, 2004):
The list shows only some results of the screen, not a fair sample: it gathers tests that were run many times, whatever their T/C, doses with no T/C, and many T/C values between a quarter and a half above the control. Other doses and runs of a compound stand elsewhere. T/C: endpoint of the treated group in % of that of the vehicle group. Some entries give survivors of the animals treated and no T/C: the source files T/C as zero there, which appears to mark a toxic dose or a test without result, not a measured value. Some survivor counts are full or nearly so, which does not show that the dose was tolerated: the source hardly ever lists a survival T/C far under the control, and the zero likely stands for such cases as well. Counts of survivors are from the toxicity check (mostly the fifth day) where no day follows; animals may have died later. Schedule codes are those of the source, read here as Q, the interval in days (D) or hours (H), X, the number of doses. Some entries were tested several times; their values stand side by side, smallest first. Some schedule codes hold Z or #, which are not explained here. Some structures stand for samples that the source files as different forms (salt, stereo form or complex); doses refer to the form tested. For survival time, the PubChem record calls one and a half times the control and up active, and a quarter to a half above the control has no call in these data; cut-offs in other NCI protocols can differ. Some T/C values are followed by the survivors on the day toxicity was checked, most often the fifth; where none is given, no animal had died by that day.

Test system: L1210 leukemia ip in BDF1 mice, survival T/C
Assay: NCI In Vivo Anticancer Drug Screen. Data for tumor model L1210 Leukemia (intraperitoneal) in B6D2F1 (BDF1) mice
Settings: T/C endpoint: mean survival time, higher T/C = longer survival
[1] = dose: 200.0 mg/kg/injection, schedule: Q04DX002 (ip), vehicle: saline with Tween-80
[2] = dose: 400.0 mg/kg/injection, schedule: Q04DX003 (ip), vehicle: saline
[3] = dose: 200.0 mg/kg/injection, schedule: Q01DX001 (ip), vehicle: saline
[4] = dose: 400.0 mg/kg/injection, schedule: Q01DX001 (ip), vehicle: saline
[5] = dose: 100.0 mg/kg/injection, schedule: Q01DX009 (ip), vehicle: saline with Tween-80
[6] = dose: 200.0 mg/kg/injection, schedule: Q01DX009 (ip), vehicle: saline with Tween-80
[7] = dose: 400.0 mg/kg/injection, schedule: Q01DX009 (ip), vehicle: saline with Tween-80
[8] = dose: 100.0 mg/kg/injection, schedule: Q01DX009 (ip), vehicle: Klucel (hydroxypropylcellulose) (HPC)
[9] = dose: 200.0 mg/kg/injection, schedule: Q01DX009 (ip), vehicle: Klucel (hydroxypropylcellulose) (HPC)
[10] = dose: 400.0 mg/kg/injection, schedule: Q01DX009 (ip), vehicle: Klucel (hydroxypropylcellulose) (HPC)
[11] = dose: 400.0 mg/kg/injection, schedule: Q04DX003 (ip), vehicle: Klucel (hydroxypropylcellulose) (HPC)
[12] = dose: 400.0 mg/kg/injection, schedule: Q01DX001 (ip), vehicle: Klucel (hydroxypropylcellulose) (HPC)
[13] = dose: 400.0 mg/kg/injection, schedule: Q04DX003 (ip), vehicle: saline with Tween-80
[14] = dose: 200.0 mg/kg/injection, schedule: Q04DX003 (ip), vehicle: Klucel (hydroxypropylcellulose) (HPC)

Nc1cc(C(=O)Nc2ccc(C3=NCC(O)CN3)cc2)ccc1C(=O)Nc1ccc(C2=NCC(O)CN2)cc1 (stereo not given)
survivor count (dose: 1.25 mg/kg/injection, schedule: Q01DX Z (ip), vehicle: carboxymethylcellulose (CMC)): 0 of 6 | survivor count (dose: 2.5 mg/kg/injection, schedule: Q01DX Z (ip), vehicle: carboxymethylcellulose (CMC)): 1 of 6 | survivor count (dose: 5.0 mg/kg/injection, schedule: Q01DX Z (ip), vehicle: carboxymethylcellulose (CMC)): 0 of 6 | survivor count (dose: 10.0 mg/kg/injection, schedule: Q01DX Z (ip), vehicle: carboxymethylcellulose (CMC)): 2 of 6

CCCCCP(=O)(CCCCC)C1CCCC1
survivor count [1]: 0 of 3 | survivor count (dose: 400.0 mg/kg/injection, schedule: Q04DX002 (ip), vehicle: saline with Tween-80): 0 of 3

CCOc1cc(N2CCOCC2)c(OCC)cc1N
survivor count (dose: 50.0 mg/kg/injection, schedule: Q04DX003 (ip), vehicle: other): 3 of 6 | survivor count (dose: 100.0 mg/kg/injection, schedule: Q04DX003 (ip), vehicle: saline): 1 of 6 | survivor count (dose: 200.0 mg/kg/injection, schedule: Q04DX003 (ip), vehicle: saline): 0 of 6 | survivor count [2]: 0 of 6

Nc1ccc2cc3ccc(N)cc3nc2c1
survivor count (dose: 100.0 mg/kg/injection, schedule: Q01DX001 (ip), vehicle: saline): 2 of 4 | survivor count [3]: 0 of 4 | survivor count [4]: 0 of 4

O=S(=O)(OCC#CCOS(=O)(=O)c1ccc(Cl)c(Cl)c1)c1ccc(Cl)c(Cl)c1
survivor count (dose: 50.0 mg/kg/injection, schedule: Q01DX009 (ip), vehicle: saline with Tween-80): 4 of 6 | survivor count [5]: 1 of 6 | survivor count [6]: 0 of 6 | survivor count [7]: 0 of 6

CCOC(=O)C1C2OC(=O)C(C(=O)C2CN(CCCl)CCCl)C1C1CC=C(CC2=CCC(C3C4C(=O)OC(C(CN(CCCl)CCCl)C4=O)C3C(=O)OCC)CC2)CC1 (stereo not given)
T/C (dose: 6.25 mg/kg/injection, schedule: Q01DX009 (ip), vehicle: Klucel (hydroxypropylcellulose) (HPC)): 143 % of control | T/C (dose: 12.5 mg/kg/injection, schedule: Q01DX009 (ip), vehicle: Klucel (hydroxypropylcellulose) (HPC)): 128 % of control | T/C (dose: 25.0 mg/kg/injection, schedule: Q01DX009 (ip), vehicle: Klucel (hydroxypropylcellulose) (HPC)): 130 % of control | T/C (dose: 50.0 mg/kg/injection, schedule: Q01DX009 (ip), vehicle: Klucel (hydroxypropylcellulose) (HPC)): 128 % of control | T/C [8]: 144 % of control | survivor count [8]: 5 of 6 and 10 of 10 | survivor count [9]: 10 of 10 | T/C (dose: 266.0 mg/kg/injection, schedule: Q04DX003 (ip), vehicle: Klucel (hydroxypropylcellulose) (HPC)): 126 % of control | survivor count [10]: 0 of 10 | T/C [11]: 125, 135, 141 % of control | T/C (dose: 600.0 mg/kg/injection, schedule: Q04DX003 (ip), vehicle: Klucel (hydroxypropylcellulose) (HPC)): 134 and 144 % of control

O=C1CCC(=O)N1[N+](=O)[O-]
survivor count [4]: 1 of 4 and 2 of 4

c1cc[c]([Pb]([c]2ccccc2)([c]2ccccc2)[n]2c3ccccc3c3ccccc32)cc1
survivor count (dose: 12.5 mg/kg/injection, schedule: Q01DX009 (ip), vehicle: acetone): 0 of 6 | survivor count (dose: 25.0 mg/kg/injection, schedule: Q01DX009 (ip), vehicle: acetone): 0 of 6 | survivor count (dose: 50.0 mg/kg/injection, schedule: Q01DX009 (ip), vehicle: acetone): 0 of 6 | survivor count [5]: 0 of 6 | survivor count [6]: 0 of 6 | survivor count [7]: 0 of 6

Cc1c2c(nn1Cc1ccccc1)C(=O)C=C(Nc1ccccc1)C2=O
T/C [12]: 128 % of control | survivor count [12]: 0 of 6

COC1OC2COC(c3ccccc3)OC2C(OS(=O)(=O)c2ccc(C)cc2)C1OS(=O)(=O)c1ccc(C)cc1 (stereo not given)
survivor count [13]: 6 of 6

CCCCN(CCCC)C(C)=O
survivor count [4]: 0 of 4

O=C1CC2C3Nc4ccccc4C3CCN2C2=C1CC(OC(=O)c1ccccc1)CC2 (stereo not given)
survivor count [14]: 6 of 6 | survivor count [11]: 5 of 6

CC(CO)[CH2][Sn]([c]1ccccc1)([c]1ccccc1)[c]1ccccc1 (stereo not given)
T/C [1]: 125 % of control [2 of 3 alive]

Nc1c(Cl)cc(C(=O)NC2CC2)cc1Cl
survivor count [9]: 5 of 6 | survivor count [14]: 4 of 4 | survivor count [10]: 0 of 6 | survivor count [11]: 0 of 4

COc1cc(OC)c(/C=C/c2c3ccccc3cc[n+]2C)c(OC)c1
survivor count (dose: 3.13 mg/kg/injection, schedule: Q01DX009 (ip), vehicle: saline with Tween-80): 0 of 6 | survivor count (dose: 6.25 mg/kg/injection, schedule: Q01DX009 (ip), vehicle: saline with Tween-80): 0 of 6 | survivor count [5]: 0 of 6 | survivor count [6]: 0 of 6 | survivor count [7]: 0 of 6

CCN(C)CCC(C=NCC(CCN(C)CC)(CCN(C)CC)c1cccc2ccccc12)(CCN(C)CC)c1cccc2ccccc12
survivor count (dose: 50.0 mg/kg/injection, schedule: Q04DX003 (ip), vehicle: saline): 0 of 6 | survivor count (dose: 100.0 mg/kg/injection, schedule: Q04DX003 (ip), vehicle: saline with Tween-80): 0 of 6 | survivor count (dose: 200.0 mg/kg/injection, schedule: Q04DX003 (ip), vehicle: saline with Tween-80): 1 of 6 | survivor count [13]: 0 of 6

CN(NC(=O)CC(=O)NN(C)C(=S)c1ccccc1)C(=S)c1ccccc1
survivor count (dose: 200.0 mg/kg/injection, schedule: Q01DX009 (ip), vehicle: gum acacia): 6 of 6 | survivor count (dose: 400.0 mg/kg/injection, schedule: Q01DX009 (ip), vehicle: gum acacia): 0 of 6

Cn1cnc(=O)c2ccccc21
survivor count [2]: 1 of 3

CN(C)CCNc1cc([N+](=O)[O-])ccc1[N+](=O)[O-]
survivor count [3]: 1 of 4 | survivor count [4]: 0 of 4
